{"source": "patent US20170020817A1", "about": "“SOLID NANOPARTICLE FORMULATION OF MICROTUBLE INHIBITORS WITH REDUCED OSTWALD REPENING FOR ORAL ADMINISTRATION” (Luminus Biosciences, Inc., priority 2013, published 2017)", "origin": "cited, not measured here", "settings": "oral administration", "note": "Some of these results come from one statement about several compounds together."}
{"smiles": "CC(=O)O[C@@]12CO[C@@H]1C[C@H](O)[C@@]1(C)C(=O)[C@H](O)C3=C(C)[C@@H](OC(=O)[C@H](O)[C@@H](NC(=O)OC(C)(C)C)c4ccccc4)C[C@@](O)([C@@H](OC(=O)c4ccccc4)[C@H]21)C3(C)C", "note": "[docetaxel]", "values": [{"measurement": "absorbed when administered orally", "value": "less than 1%"}]}
